# Source: PubChem BioAssay AID1347423 (Functional Genomics Laboratory (NCATS/FGL), 2020)
# Screen size: about 52,000 sequences; about 210 (0.4%) were called active.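 The calls were made as follows: active = gene whose silencing raises cell survival under the drug, median off-target-corrected z-score across its silencing RNAs 2 or more; inactive = the rest.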 Some of the results follow.
# Assay: Resistance to Poly (ADP-Ribose) Polymerase inhibitor: Gene Identification via Genome-wide siRNA Screen
# Conditions: mouse BRCA2 R2336H ES cells, olaparib, CellTiter-Glo viability; active compounds read high
# How it was run: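 Mouse BRCA2 R2336H ES cells were reverse-transfected with siRNA (20 nM final), treated at 48 h with 500 nM olaparib, and read by CellTiter-Glo after 72 h. Scores: MAD-based z per siRNA, median per gene, seed off-target correction.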
row,Sequence,z-score
1,GCCUUGAACCUUCACACCUTT against Ccl8,inactive: 0.712
2,GCGAAUUGCAUUCCUGUUUTT against BC033609,inactive: -1.16
3,GGGAGGAGAUUAUUUCUAUTT against Nmnat2,inactive: -1.67
4,CCUCCAUUAACUAUGUUAGTT against Chd1l,inactive: 0.853
5,GGCAACACUUAAGCCUGAGTT against MGC59495,inactive: -2.28
6,GCAAGUUCAACCUCAAGGGTT against 5430400N05Rik,inactive: 0.636
7,GGAGGAUGGAAAGAUAAAATT against Slc25a27,inactive: -0.845
8,GCCACAUUCCGAAUACUCUTT against Disp1,inactive: -0.96
9,GGCCCUAGUUACAACAAAATT against V1rg4,inactive: 1.62
10,GGUAUCCAUACUUCCACCCTT against 4930474N05,inactive: -0.838
11,GGUGAAGGCUUACCAGAUUTT against Oog1,inactive: -2.33
12,GGCUCCUUAAAGAUAUGUUTT against Nsmaf,inactive: 0.332
13,GCGUGAGUAUGAGAAAUGUTT against BC029103,inactive: -0.772
14,CCACAAGUUCACUAAGGAGTT against Six3,inactive: -0.971
15,GGCCUAACCUCCAAAAGUATT against Xpo4,inactive: -1.72
16,GGUUUGUGGAUGACAACGGTT against Mtf1,inactive: 1.8
17,GCUAGUUUAAGAGACUUUGTT against Nfatc2ip,inactive: -0.253
18,GGAGGUUCUACCCUGUUCATT against Actr1a,inactive: -1.38
19,GGGUUAUGAAGAAGCUCCUTT against Olfr1262,inactive: -0.163
20,GGACAAGAAAAGGAAGAAGTT against Ap3d1,inactive: 0.269
21,GGAAAUUUGGAUUGAUGAATT against Mef2c,inactive: 1.15
22,GGGAGCACCAGCAAUGGAUTT against Col17a1,inactive: -0.188
23,GCUUAAAGCUGCCUAAAAATT against 1700021F05Rik,inactive: 0.848
24,GGUGGUAACGGAAAACCUGTT against Wnt10b,inactive: 2.31
25,GGAAGCUCAUUUUCACGUGTT against Slc22a19,inactive: 0.555
26,GGCAAGCCAGAGAAACUGATT against 3100004P22Rik,inactive: -1.83

row,Sequence,z-score
1,GGGCUUGAGAAAGAGGAUUTT against E330021D16Rik,inactive: 0.0729
2,GAGGGCCAUCUCUGACAUGTT against Avp,inactive: -0.814
3,GGUAUUCUUGGAAGGAGGGTT against Prss22,inactive: 1.18
4,GGAGCUGUUCAUCGAACAATT against Nol7,inactive: 0.301
5,GGUUACCUGCUGUGUUUUGTT against Muc2,inactive: 1.79
6,GGGAAGCCAAACAGAAUCATT against 1700041G16Rik,inactive: -0.261
7,GAAAACAGAAAACCCACAGTT against V1ri8,inactive: 1.66
8,CAACACCAUUCCUAAAUCATT against 4931407G18Rik,inactive: 0.0414
9,CCACUUCUCAGGUUAAUGGTT against Fen1,inactive: 0.421
10,GCUGAUCCACGACUACUUGTT against 1700012B15Rik,inactive: 0.191
11,GGCAAAAAUACCCAAUUUUTT against Timm22,inactive: 2.13
12,GGAGCUCGAAAAAUUUCAATT against Gm580,inactive: -0.345
13,CGUGUGAAGUAAAGAUGUUTT against Mrp63,inactive: -0.663
14,GAAUUUGGACAUAGUUAUGTT against Ptcra,inactive: -0.095
15,GCUUUUAGGCACCUGUGCUTT against 1100001G20Rik,inactive: 0.129
16,GGCCGUAUCUGUCUCCUUUTT against Defcr,inactive: 0.351
17,GCAGUUUGUGGAUAUGUCATT against Treh,inactive: 2.11
18,GGUUUAUGAUCCACUUUCCTT against Ipp,inactive: -0.00412
19,GGACAAGAAGCUGUCCAAGTT against Atoh7,inactive: -1.83
20,GCACCUCCACAAGAAUGAATT against Six2,inactive: 0.257
21,GGCCCUUUGAAGAGAAUCGTT against Hnrpul1,inactive: -0.699
22,CGAGAAAAUGGAUUCUACCTT against Atp10d,inactive: -0.182
23,GGAUGAUGCCGUGUAUGAGTT against Kirrel3,inactive: 0.985
24,GGGAAGGAACAGUAAAUAATT against 2310012P17Rik,inactive: -2.08
25,GGUGUCAGGAUUUUAUAACTT against 4833442J19Rik,inactive: 0.932
26,GGUGUUCCUCAUGGUGACCTT against BC021367,inactive: -0.143

row,Sequence,z-score
1,GGACUUCUUAUGGAAAAGATT against Xlr5,inactive: -0.438
2,GGUUUUUAACAAGCUAAUCTT against Bzw1,inactive: -0.651
3,GGAUUCUUCACAGCGGAUGTT against MGC49146,inactive: 1.15
4,GCACUGCUGUCUAUAUUCATT against Olfr117,inactive: -0.153
5,GCUUUGACUUGAAACAAAATT against LOC574530,inactive: 0.897
6,GGCUUACUUCAUUUCAGUUTT against Zfp526,inactive: -0.283
7,GCUACUGCACAAAGUUACGTT against 1700012M14Rik,inactive: -0.0568
8,GGUUUUUGCUGAGUCUUGCTT against Olfr299,inactive: 1.22
9,GCAGCUAAGCAACUUCAAUTT against 2310005N03Rik,inactive: 0.526
10,GGUGCAAAGACAAGUUAAATT against Shh,inactive: -0.221
11,CCAAGCCCACAACGAUCGUTT against Triobp,inactive: 0.0901
12,CCUCUCUACUACAGACCUUTT against Olfr1058,inactive: -0.92
13,ACCUGUUGAGCAAAGAAUGTT against Cst8,inactive: 0.14
14,GGAGAUUCCAGAGUUCUUGTT against A930040G15Rik,inactive: 0.0832
15,GCAUGUGGAGAACGACUAUTT against 3110043J09Rik,inactive: -2.24
16,GCUAUCCUAAUCCUCAAUATT against BC020151,inactive: -0.862
17,GCACGGAAGAAUCCAAAGATT against C030011O14Rik,inactive: -2.23
18,GCACCUGACAGAUACUUCCTT against 2610034N24Rik,inactive: -2.31
19,CCAUCUGCAUCAAGAGAAATT against Kirrel2,inactive: -0.354
20,GGACAAUAGAUGUGUUUGATT against Ddb2,inactive: 0.492
21,GCCAGUCAUUAUAGUUAACTT against 1300013J15Rik,inactive: -0.121
22,GGGAGAGUCUUUUUUUAAATT against 1600019O04Rik,inactive: -0.0165
23,CCUACGACCUUCUCUACCATT against 2310046G15Rik,inactive: 0.34
24,CCUAACUUCACCAUAAUCATT against Xrn2,inactive: 0.382
25,GGUCAAAAUGUCUUUGGAATT against Rgs1,inactive: 0.494
26,CGGUUAGACAGUGCACCAATT against Dnm1,inactive: -1.53

# Individual results from the entries so far.
# Value for GGCUUACUUCAUUUCAGUUTT against Zfp526 under z-score: inactive: -0.283
# Value for CGGUUAGACAGUGCACCAATT against Dnm1 under z-score: inactive: -1.53
# Value for GCAGCUAAGCAACUUCAAUTT against 2310005N03Rik under z-score: inactive: 0.526
# Value for GGAGAUUCCAGAGUUCUUGTT against A930040G15Rik under z-score: inactive: 0.0832

# Quoted at random: three entries already listed, in no set order.
row,Sequence,z-score
15,GCAUGUGGAGAACGACUAUTT against 3110043J09Rik,inactive: -2.24
5,GCUUUGACUUGAAACAAAATT against LOC574530,inactive: 0.897
23,CCUACGACCUUCUCUACCATT against 2310046G15Rik,inactive: 0.34

# More entries:

row,Sequence,z-score
1,ACUUCCUGAUUGAGAGAAATT against Olfr497,inactive: -1.1
2,GGUGCUCAGCAUGUUUGCUTT against Avpr1b,inactive: 0.497
3,GCACCAGCUCUAAUUCAGATT against 5031400M07Rik,inactive: -1.12
4,GCCCAUGGAUACAGAAACUTT against AW319487,inactive: -0.374
5,GCACCAGGAGUUACCUGUATT against Tex2,inactive: -0.278
6,GGCUGUCUUACAAUGUAAUTT against Gabrb2,inactive: 0.0623
7,GGGAAUGAACCUAGAAGAGTT against Ecgf1,inactive: 0.587
8,GGUCAUGAGAUCAGCCCUUTT against Adh5,inactive: -1.78
9,CCAUGUCAAGCGGAUAGCATT against Mc5r,inactive: -0.954
10,GCAACUUGUGCCUCUGCUATT against Dhh,inactive: -1.64
11,GGACAAAAGACAAUCGAGATT against Adprtl2,inactive: -0.365
12,GGUGUGGUACGACAUGUUCTT against 2610510L01Rik,inactive: -0.332
13,CCUCAGGUUAUUGAAUAUUTT against Rapgef6,inactive: 0.762
14,GGAUUUCAUGAUUCAGGGUTT against Ppih,inactive: 0.677
15,GGAAGUGGAACACAUGAUCTT against Zfp346,inactive: -0.778
16,CCGGAUGGGAAUCGCUAAATT against 9330176C04Rik,inactive: 0.418
17,GGUCUUAUGGGAAAAUUAGTT against Lamc2,inactive: 0.954
18,GGAAGUAUGUGUUUCUCAGTT against A030004J04Rik,inactive: 2.08
19,GGAUGGUUUUCGUCUGACGTT against Umod,inactive: -2.93
20,GGUUAUGAUGGGACUUCUCTT against Pr1,inactive: -0.336
21,GGUUAUAACAGUCUUAGCATT against 4930577M16Rik,inactive: 0.687
22,GGGAUAUGUGAAGCCUCAGTT against Mospd3,inactive: 0.463
23,CGGUGCCCUACAUGCUAAATT against Ebi3,inactive: -0.141
24,CCGUGAUAAUGUAACACCUTT against A230098A12Rik,inactive: 2.12
25,CGAGAUGUGUGUUAAAGGATT against D530033C11Rik,inactive: 0.114
